{"sequences": {"note": "Amino acid sequences for entries named in this document (tags omitted). A change or cut given only in a name is not applied to a line headed by its entry.", "UniProt O51305": "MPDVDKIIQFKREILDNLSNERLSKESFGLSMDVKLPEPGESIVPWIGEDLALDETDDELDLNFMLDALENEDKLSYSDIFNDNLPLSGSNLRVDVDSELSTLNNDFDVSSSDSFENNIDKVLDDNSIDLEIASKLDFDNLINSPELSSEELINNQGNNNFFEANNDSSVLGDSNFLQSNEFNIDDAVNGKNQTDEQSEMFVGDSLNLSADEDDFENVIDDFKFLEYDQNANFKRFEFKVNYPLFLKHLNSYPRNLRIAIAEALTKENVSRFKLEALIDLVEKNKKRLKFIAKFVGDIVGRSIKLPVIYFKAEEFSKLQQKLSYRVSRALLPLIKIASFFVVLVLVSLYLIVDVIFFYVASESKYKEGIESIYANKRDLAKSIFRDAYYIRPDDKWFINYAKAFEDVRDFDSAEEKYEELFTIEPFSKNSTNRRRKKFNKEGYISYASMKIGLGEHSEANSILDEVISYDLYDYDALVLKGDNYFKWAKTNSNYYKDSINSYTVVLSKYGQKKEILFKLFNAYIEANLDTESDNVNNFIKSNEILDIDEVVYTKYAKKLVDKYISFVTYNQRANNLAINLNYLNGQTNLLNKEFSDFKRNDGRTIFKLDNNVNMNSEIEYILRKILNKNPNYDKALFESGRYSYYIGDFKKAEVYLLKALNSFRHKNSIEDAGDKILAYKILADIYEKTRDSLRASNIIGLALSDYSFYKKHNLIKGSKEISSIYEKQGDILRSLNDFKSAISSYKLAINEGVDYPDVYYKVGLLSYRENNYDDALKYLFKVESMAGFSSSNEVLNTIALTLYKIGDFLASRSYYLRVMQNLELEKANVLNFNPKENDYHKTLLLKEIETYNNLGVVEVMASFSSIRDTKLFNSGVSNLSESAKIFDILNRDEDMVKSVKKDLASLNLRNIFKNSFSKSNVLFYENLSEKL"}, "source": "paper PMC8609358", "molecular_target": "MBP-MotB (B. burgdorferi) (UniProt Q57371)", "assay": "far-Western, overlay or dot blot; 1 μg purified MBP-tagged protein run on SDS-PAGE and transferred to PVDF; blocked in 5% skim milk, 10 mM Tris, 150 mM NaCl, 0.3% Tween 20 pH 7.4; incubated overnight with purified 1×FLAG-tagged protein at 2 μg/ml; detected with anti-FLAG M2; both purified", "note": "Results are given in words; binding and its absence hold for the method and conditions named. Binding calls can cover weak binding; strength is not graded here.", "data": [{"substance": "1×FLAG-tagged FlcA (BB0326), C terminus aa 360 to 931 (from UniProt O51305) (domain or fragment)", "values": [{"measurement": "binding", "value": "binds"}]}]}
